A short description of this experiment: qHTS Assay for Modulators of Lamin A Splicing. To be noted: HeLa LMNA splicing GFP/RFP minigene ratio, 48 h. The method in brief: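 S3 HeLa cells stably expressing lamin A-EGFP splicing minigene plus DsRed2, 600 cells/well, 48 h compound exposure at 37C. Laser-scanning cytometry; analysed as GFP (500-530 nm)/RFP (575-640 nm) total intensity ratio; 0.5% DMSO vehicle.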
(qHTS replaces the single test concentration by a dilution series.)

[1] abbreviates: measured here: RFP viability control channel.
Where [2] appears, read: measured here: GFP splicing reporter channel.

The other results are listed elsewhere or left out. Shown are side measurements of this screen, not its main read-out; they come without a call. Compounds called inactive in the main read-out are mostly missing here. Words in brackets tell the shape of the fitted curve; partial curves, single points and poor fits give uncertain potencies.

On to `CCCC(C)NC(=O)COc1ccc(Sc2ccc(OCC(=O)NC(C)CCC)cc2)cc1` (stereo not drawn), for which the AC50 (usually the concentration giving half of the maximal activity seen) under setting [1] is 5.01 µM [rising, full curve].

Take `O=C(N/N=C/c1cc2c3c(c1O)CCCN3CCC2)c1ccccc1O`: the AC50 reads like this: under setting [2], 0.316 µM [rising, full curve, poor fit]; under setting [1], 0.708 µM [rising, partial curve, poor fit].

Consider `CC1(C)CCCC2=C1CC1C(=O)N(Cc3cccnc3)C(=O)C1C2` (stereo not drawn), for which, under setting [1], the AC50 was 35.5 µM [rising, single point].

With `CC(CCc1ccccc1)NC(=O)COC(=O)c1ccc(S(C)(=O)=O)c([N+](=O)[O-])c1` (stereo not drawn), the AC50 is, setting by setting: under setting [2], 10 µM [falling, partial curve]; under setting [1], 35.5 µM [falling, partial curve, poor fit].

On to `CC(C)(C)c1ccc(/C=C/C(=O)Nc2ncccn2)cc1`, for which the AC50 is, setting by setting: under setting [2], 4.47 µM [rising, partial curve, poor fit]; under setting [1], 22.4 µM [rising, partial curve, poor fit].

In the case of `CC(C)c1ccc(N(CC(=O)NCc2ccc(F)cc2)C(=O)c2csnn2)cc1`, the AC50 is 0.891 µM [falling, full curve, poor fit] under setting [2] and 0.891 µM [falling, full curve, poor fit] under setting [1].

For `O=C(c1ccco1)N1CCN(c2ncnc3c2nnn3Cc2ccccc2Cl)CC1`, the AC50 was 6.31 µM [rising, partial curve, poor fit] under setting [2] and 12.6 µM [rising, partial curve] under setting [1].

As for `CN(C)c1nc(NCc2ccccc2)nc(N/N=C/c2ccc3c(c2)OCO3)n1`, the AC50 is, setting by setting: under setting [2], 31.6 µM [rising, single point]; under setting [1], 35.5 µM [rising, single point].

For `O=C(CN1C(=O)NC2(CCCCCC2)C1=O)N1CCN(S(=O)(=O)c2ccc(Cl)cc2)CC1`, the AC50 under setting [2] is 0.00501 µM [falling, full curve] and the AC50 under setting [1] is 0.00891 µM [falling, full curve].

Take `Cc1cc[n+](C(C)C(=O)c2ccc(-c3ccccc3)cc2)cc1` (stereo not drawn): the AC50 under setting [1] is 11.2 µM [rising, partial curve].

On to `CCNc1ccc(C(=O)OCC)cc1NC(=O)c1cccc(S(=O)(=O)N(C)c2ccccc2)c1`, for which, under setting [1], the AC50 is 3.55 µM [rising, full curve, poor fit].

Take `CCN(CC)CCOC(=O)[C@@H](c1ccccc1)C1CCCCC1`: the AC50 runs as follows: under setting [2], 0.282 µM [falling, full curve]; under setting [1], 0.251 µM [falling, full curve].

Turning to `CC(C)C(NC(=O)OC(C)(C)C)C(=O)N1CCCC1C(=O)NC(Cc1ccccc1)C(N)=O` (stereo not drawn), the AC50 under setting [2] was 12.6 µM [rising, single point].

With `COc1ccc(OC)c(/C=C/C(=O)N(C)CC(=O)Nc2ccc(C)cc2)c1`, the AC50 under setting [2] was 10 µM [rising, partial curve].

With `CCn1cc(C(=O)NCc2ccc3c(c2)OCO3)c2cc(OC)c(OC)cc2c1=O`, the AC50 was 0.891 µM [falling, full curve] under setting [2] and 0.891 µM [falling, full curve] under setting [1].

As for `COc1ccc(-c2cnnn2-c2ccc(NC(=O)/C=C/c3ccc(OC)c(OC)c3)cc2)cc1`, the AC50 under setting [2] was 17.8 µM [falling, single point].

`CCOc1ccccc1NC(=O)C(OC(=O)c1ccc(O)cc1)c1ccccc1` (stereo not drawn): under setting [1], the AC50 was 12.6 µM [rising, partial curve].

Turning to `O=C(NCc1ccco1)C1CCN(S(=O)(=O)N2CCC3(CC2)OCCO3)CC1`, under setting [1], the AC50 is 1.26 µM [falling, single point].

In the case of `COc1cccc(CSc2nc3n(n2)C(CC(C)C)C(C(=O)Nc2ccccc2OC)=C(C)N3)c1` (stereo not drawn), the AC50 is, setting by setting: under setting [2], 15.8 µM [falling, single point]; under setting [1], 15.8 µM [falling, single point].

For `COCC(=O)Nc1c(C(=O)Nc2ccc3c(c2)OCCO3)oc2ccccc12`, the AC50 is, setting by setting: under setting [2], 11.2 µM [falling, partial curve, poor fit]; under setting [1], 35.5 µM [falling, partial curve, poor fit].

As to `NC(=S)N/N=C/c1ccc2ccccc2c1`, under setting [1], the AC50 was 5.01 µM [falling, single point].

For `CCOC(=O)C1CCN(C(=O)COc2cc(C)c(Br)cc2C)CC1`, the AC50 under setting [2] was 15.8 µM [rising, single point].

For `O=C(CN1CCOCC1)Nc1ncc(Cc2cccc3ccccc23)s1`, the AC50 under setting [1] is 12.6 µM [rising, partial curve].

Consider `Cc1ccc(/C(=C\CN2CCCC2)c2ccccn2)cc1`, for which the AC50 under setting [1] was 1.41 µM [rising, full curve].

Take `Cc1ccc(/C=N/NC(=O)CSc2nc3ccccc3n2Cc2ccc(Cl)cc2)o1`: the AC50 under setting [2] is 10 µM [rising, partial curve, poor fit] and the AC50 under setting [1] was 12.6 µM [rising, single point].

For the compound `Cc1cc(C)cc(NS(=O)(=O)c2ccc3[nH]cc(C(=O)N4CCc5ccccc54)c(=O)c3c2)c1`, the AC50 under setting [1] was 10 µM [rising, partial curve].

Take `COc1ccc(C(=O)N2CCN(c3ccc(C)cc3C)CC2)cc1OC`: the AC50 by setting is: under setting [2], 35.5 µM [rising, single point]; under setting [1], 35.5 µM [rising, single point].

Regarding `O=C(CC(SCCO)c1ccc(F)cc1)c1ccco1` (stereo not drawn), the AC50 was 14.1 µM [falling, single point] under setting [2] and 17.8 µM [falling, single point] under setting [1].

With `O=C(NCc1ccco1)C1(c2ccccc2)CCCC1`, the AC50 under setting [1] was 35.5 µM [rising, single point].

With `O=C1CC(c2c(F)cccc2Cl)C(n2cncn2)C(O)=C1C1NCCc2ccccc21` (stereo not drawn), the AC50 under setting [2] is 1.58 µM [rising, full curve].

Turning to `COc1ccccc1-c1nn2c(C3COc4ccccc4O3)nnc2s1` (stereo not drawn), the AC50 under setting [2] is 7.94 µM [rising, partial curve, poor fit].

Turning to `CCN(Cc1nc(-c2ccc(OC)cc2)oc1C)S(=O)(=O)c1ccc(C)cc1`, the AC50 is 3.16 µM [rising, partial curve, poor fit] under setting [2] and 3.55 µM [rising, full curve, poor fit] under setting [1].

As to `Cc1ccc(NC(=O)CN2CCSc3ccc(S(=O)(=O)N4CCCC4)cc32)cc1`, the AC50 under setting [2] was 35.5 µM [rising, single point] and the AC50 under setting [1] is 14.1 µM [rising, single point].

Consider `CC(C)(C)c1ccc(C(=O)Nc2nnc(Cc3c[nH]c4ccccc34)s2)cc1`, for which the AC50 runs as follows: under setting [2], 5.62 µM [rising, single point]; under setting [1], 5.62 µM [rising, single point].

With `COc1cc(-c2cc(OC)c3c(C)oc(C)c3c(=O)c2)ccc1O`, the AC50 reads like this: under setting [2], 12.6 µM [rising, single point]; under setting [1], 14.1 µM [rising, single point].

On to `COc1ccc(NC(=O)C23CC4CC(C2)CC(c2ccc(C)cc2)(C4)C3)cc1`, for which, under setting [1], the AC50 was 20 µM [rising, single point].

For `Cc1cc(C)nc(SCc2ccc(C(=O)N/N=C/c3cccc(O)c3O)cc2)n1`, under setting [1], the half-maximal activity concentration (AC50) is 28.2 µM [rising, single point].

Consider `COCCn1c(SCC(=O)Nc2ccc(Cl)cn2)nnc1-c1ccncc1`, for which the AC50 by setting is: under setting [2], 7.08 µM [falling, partial curve, poor fit]; under setting [1], 0.398 µM [falling, partial curve, poor fit].

In the case of `CC1CCN(c2c(NCc3ccc(C(=O)N4c5ccccc5CC4C)cc3)c(=O)c2=O)CC1` (stereo not drawn), under setting [1], the AC50 was 35.5 µM [rising, single point].

`Cc1ccc(-c2ccc(C(=O)Nc3ccccc3)o2)c2ccccc12`: the AC50 is, setting by setting: under setting [2], 15.8 µM [rising, single point]; under setting [1], 17.8 µM [rising, single point].

Take `CCOc1ccc(NC2OC(C)C(O)C(O)C2O)c([N+](=O)[O-])c1` (stereo not drawn): the AC50 under setting [1] was 0.794 µM [falling, full curve, poor fit].

`COc1ccc(/C=C2\C(=O)N(Cc3ccc(F)cc3)CC(=O)N2Cc2ccccc2)cc1`: the AC50 under setting [1] is 35.5 µM [rising, single point].

Consider `O=C(COC(=O)CCC(=O)c1cccs1)NCc1ccccc1`, for which the AC50 under setting [2] is 0.0891 µM [falling, full curve, poor fit].

Regarding `O=C(NCc1cccnc1)/C(=C/c1ccc(-c2cccc(Cl)c2)o1)S(=O)(=O)c1ccccc1`, the AC50 is 3.98 µM [falling, full curve] under setting [2] and 3.98 µM [falling, full curve] under setting [1].

For `Cc1cccc(OCc2nnc(SCC(=O)N3c4ccccc4CC3C)n2C)c1C` (stereo not drawn), the AC50 under setting [1] was 12.6 µM [rising, partial curve, poor fit].

Take `CCN(CC)C(=O)CSc1nnc(COc2ccc(OC)cc2)n1N`: the AC50 was 0.891 µM [falling, full curve, poor fit] under setting [2] and 0.891 µM [falling, full curve, poor fit] under setting [1].

Regarding `CCOC(=O)CN1C(=O)N[C@@H](c2ccc(Br)cc2)C(C(C)=O)=C1C`, under setting [1], the AC50 is 11.2 µM [rising, single point].

Take `C=CCn1c(SCc2c(C)noc2C)nc2cc(C(=O)O)ccc2c1=O`: the AC50 under setting [1] was 31.6 µM [rising, single point].

`COC(=O)c1ccccc1NC(=O)N1c2ccccc2CC1C` (stereo not drawn): the AC50 is 1.58 µM [rising, partial curve, poor fit] under setting [2] and 12.6 µM [rising, partial curve] under setting [1].

In the case of `Cc1ccc(NC(=O)c2cc(C)n(-c3cccc(C)c3)c2C)cc1`, the AC50 runs as follows: under setting [2], 10 µM [rising, partial curve]; under setting [1], 12.6 µM [rising, partial curve].

With `Cc1c(C(=O)Nc2ccccc2F)sc2ncnc(N(C)C3CCCCC3)c12`, the AC50 by setting is: under setting [2], 12.6 µM [falling, partial curve]; under setting [1], 4.47 µM [falling, partial curve, poor fit].

As for `CCn1c(SCC(=O)c2[nH]c(C)c(C(C)=O)c2C)nnc1-c1ccccc1`, the AC50 reads like this: under setting [2], 3.55 µM [rising, single point]; under setting [1], 7.08 µM [rising, partial curve].

The record behind these values is PubChem BioAssay AID1487 (National Center for Advancing Translational Sciences (NCATS), 2009).
